Assay results published in patent US20220305105A1.
These are yes or no findings as the source states them, for the method shown. Some results given as binding are weak or reduced against the parent protein; the word gives no strength.

Chains of the proteins cited; added tags and fusions are not shown. Residues count along the entry.
UniProt P35968, residues 20-764: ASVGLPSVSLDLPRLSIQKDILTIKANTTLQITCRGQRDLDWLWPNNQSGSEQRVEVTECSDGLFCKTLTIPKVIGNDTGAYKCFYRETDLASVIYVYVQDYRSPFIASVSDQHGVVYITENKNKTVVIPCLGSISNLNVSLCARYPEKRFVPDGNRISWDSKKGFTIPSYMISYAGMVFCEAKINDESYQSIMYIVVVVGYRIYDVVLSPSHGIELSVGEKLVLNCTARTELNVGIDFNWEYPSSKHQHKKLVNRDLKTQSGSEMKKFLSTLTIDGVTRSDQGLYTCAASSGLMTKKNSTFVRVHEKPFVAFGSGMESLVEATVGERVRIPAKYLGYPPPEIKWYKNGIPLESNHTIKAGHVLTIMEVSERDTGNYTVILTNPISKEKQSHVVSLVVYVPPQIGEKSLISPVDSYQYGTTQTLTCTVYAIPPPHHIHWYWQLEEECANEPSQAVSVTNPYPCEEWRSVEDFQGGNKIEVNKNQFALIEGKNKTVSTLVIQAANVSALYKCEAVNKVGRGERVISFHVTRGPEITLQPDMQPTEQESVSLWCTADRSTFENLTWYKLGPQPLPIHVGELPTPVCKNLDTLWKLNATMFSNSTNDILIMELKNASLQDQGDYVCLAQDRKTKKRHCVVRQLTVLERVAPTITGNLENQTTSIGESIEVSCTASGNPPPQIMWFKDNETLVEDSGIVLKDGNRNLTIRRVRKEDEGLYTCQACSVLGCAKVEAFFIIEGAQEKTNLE
UniProt P35916, residues 25-775: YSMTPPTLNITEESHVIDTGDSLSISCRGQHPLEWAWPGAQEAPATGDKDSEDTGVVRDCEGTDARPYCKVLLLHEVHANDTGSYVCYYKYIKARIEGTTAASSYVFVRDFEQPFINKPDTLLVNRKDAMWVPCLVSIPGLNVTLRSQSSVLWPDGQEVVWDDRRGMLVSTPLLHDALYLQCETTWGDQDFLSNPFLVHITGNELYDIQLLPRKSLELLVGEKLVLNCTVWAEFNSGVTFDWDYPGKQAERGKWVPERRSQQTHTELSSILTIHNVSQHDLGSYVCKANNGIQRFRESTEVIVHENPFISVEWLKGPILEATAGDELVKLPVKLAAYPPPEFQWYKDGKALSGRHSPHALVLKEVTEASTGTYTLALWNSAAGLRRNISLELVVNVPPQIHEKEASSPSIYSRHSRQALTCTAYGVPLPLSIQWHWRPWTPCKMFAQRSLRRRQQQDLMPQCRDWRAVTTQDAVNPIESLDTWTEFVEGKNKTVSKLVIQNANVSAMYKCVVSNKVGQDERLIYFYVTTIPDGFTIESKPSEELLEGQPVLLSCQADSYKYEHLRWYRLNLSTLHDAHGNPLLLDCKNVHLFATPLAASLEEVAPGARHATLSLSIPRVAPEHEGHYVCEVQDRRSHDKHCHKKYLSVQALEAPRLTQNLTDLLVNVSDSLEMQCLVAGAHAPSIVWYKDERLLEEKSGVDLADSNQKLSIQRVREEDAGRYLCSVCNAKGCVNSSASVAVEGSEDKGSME
UniProt O43915, residues 89-205: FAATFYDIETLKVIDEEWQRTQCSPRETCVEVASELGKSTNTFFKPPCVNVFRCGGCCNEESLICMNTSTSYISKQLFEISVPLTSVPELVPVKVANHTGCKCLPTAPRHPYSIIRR

Columns and labels:
[1] = target: recombinant VEGFR-2 (extracellular domain of the VEGF-receptor fused to human IgG Fc region) (human) (UniProt P35968); experiment: ELISA, VEGFR-Fc coated on the plate, bound VEGF detected with protein-specific antibodies
[2] = target: recombinant VEGFR-3 (extracellular domain of the VEGF-receptor fused to human IgG Fc region) (human) (UniProt P35916); experiment: as above

- binding [1]: binds
- binding [2]: binds
Substance: Recombinant human VEGF-D (from UniProt O43915 89-205) (ligand)
